Measurements: publication PMC6805634
Results are given in words; binding and its absence hold for the method and conditions named. In cells and extracts the contact can be indirect. Some results given as binding are weak or reduced against the parent protein; the word gives no strength.

Protein sequences, listed by entry. Tags and fused reporters are not part of them. Lines headed by an entry give the natural chain unless they say otherwise; changes in a name come on top.
UniProt Q15910: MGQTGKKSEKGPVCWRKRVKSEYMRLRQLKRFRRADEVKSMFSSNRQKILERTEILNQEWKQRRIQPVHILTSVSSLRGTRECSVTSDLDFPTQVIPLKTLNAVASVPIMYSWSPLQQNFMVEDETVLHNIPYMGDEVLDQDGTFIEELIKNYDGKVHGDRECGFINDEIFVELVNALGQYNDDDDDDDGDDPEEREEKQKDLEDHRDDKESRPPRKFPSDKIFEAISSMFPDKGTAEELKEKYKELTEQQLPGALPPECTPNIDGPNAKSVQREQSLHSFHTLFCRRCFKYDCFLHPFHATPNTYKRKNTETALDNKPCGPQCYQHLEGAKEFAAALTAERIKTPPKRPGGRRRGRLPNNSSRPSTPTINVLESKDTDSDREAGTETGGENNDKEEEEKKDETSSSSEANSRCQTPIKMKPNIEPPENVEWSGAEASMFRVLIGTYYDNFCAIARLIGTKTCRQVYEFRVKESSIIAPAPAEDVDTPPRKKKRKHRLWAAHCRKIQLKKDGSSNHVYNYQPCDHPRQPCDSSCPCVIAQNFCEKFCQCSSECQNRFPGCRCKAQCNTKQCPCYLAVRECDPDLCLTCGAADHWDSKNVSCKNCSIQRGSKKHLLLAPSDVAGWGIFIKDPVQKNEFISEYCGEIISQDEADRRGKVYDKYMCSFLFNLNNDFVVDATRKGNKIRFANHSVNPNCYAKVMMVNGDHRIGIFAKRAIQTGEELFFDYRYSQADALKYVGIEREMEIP
UniProt Q01196: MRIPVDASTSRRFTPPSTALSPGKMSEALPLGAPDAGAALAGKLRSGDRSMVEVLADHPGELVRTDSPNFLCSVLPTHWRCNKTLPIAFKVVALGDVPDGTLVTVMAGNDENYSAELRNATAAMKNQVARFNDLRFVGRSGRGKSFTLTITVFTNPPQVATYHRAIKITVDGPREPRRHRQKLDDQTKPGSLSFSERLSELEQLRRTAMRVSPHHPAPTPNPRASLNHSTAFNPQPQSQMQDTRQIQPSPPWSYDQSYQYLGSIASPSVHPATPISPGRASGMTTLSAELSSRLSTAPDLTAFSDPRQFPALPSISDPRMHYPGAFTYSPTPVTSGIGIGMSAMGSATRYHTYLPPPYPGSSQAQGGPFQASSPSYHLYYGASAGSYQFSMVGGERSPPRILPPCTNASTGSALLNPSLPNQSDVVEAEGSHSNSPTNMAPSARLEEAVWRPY
UniProt Q8IXJ9: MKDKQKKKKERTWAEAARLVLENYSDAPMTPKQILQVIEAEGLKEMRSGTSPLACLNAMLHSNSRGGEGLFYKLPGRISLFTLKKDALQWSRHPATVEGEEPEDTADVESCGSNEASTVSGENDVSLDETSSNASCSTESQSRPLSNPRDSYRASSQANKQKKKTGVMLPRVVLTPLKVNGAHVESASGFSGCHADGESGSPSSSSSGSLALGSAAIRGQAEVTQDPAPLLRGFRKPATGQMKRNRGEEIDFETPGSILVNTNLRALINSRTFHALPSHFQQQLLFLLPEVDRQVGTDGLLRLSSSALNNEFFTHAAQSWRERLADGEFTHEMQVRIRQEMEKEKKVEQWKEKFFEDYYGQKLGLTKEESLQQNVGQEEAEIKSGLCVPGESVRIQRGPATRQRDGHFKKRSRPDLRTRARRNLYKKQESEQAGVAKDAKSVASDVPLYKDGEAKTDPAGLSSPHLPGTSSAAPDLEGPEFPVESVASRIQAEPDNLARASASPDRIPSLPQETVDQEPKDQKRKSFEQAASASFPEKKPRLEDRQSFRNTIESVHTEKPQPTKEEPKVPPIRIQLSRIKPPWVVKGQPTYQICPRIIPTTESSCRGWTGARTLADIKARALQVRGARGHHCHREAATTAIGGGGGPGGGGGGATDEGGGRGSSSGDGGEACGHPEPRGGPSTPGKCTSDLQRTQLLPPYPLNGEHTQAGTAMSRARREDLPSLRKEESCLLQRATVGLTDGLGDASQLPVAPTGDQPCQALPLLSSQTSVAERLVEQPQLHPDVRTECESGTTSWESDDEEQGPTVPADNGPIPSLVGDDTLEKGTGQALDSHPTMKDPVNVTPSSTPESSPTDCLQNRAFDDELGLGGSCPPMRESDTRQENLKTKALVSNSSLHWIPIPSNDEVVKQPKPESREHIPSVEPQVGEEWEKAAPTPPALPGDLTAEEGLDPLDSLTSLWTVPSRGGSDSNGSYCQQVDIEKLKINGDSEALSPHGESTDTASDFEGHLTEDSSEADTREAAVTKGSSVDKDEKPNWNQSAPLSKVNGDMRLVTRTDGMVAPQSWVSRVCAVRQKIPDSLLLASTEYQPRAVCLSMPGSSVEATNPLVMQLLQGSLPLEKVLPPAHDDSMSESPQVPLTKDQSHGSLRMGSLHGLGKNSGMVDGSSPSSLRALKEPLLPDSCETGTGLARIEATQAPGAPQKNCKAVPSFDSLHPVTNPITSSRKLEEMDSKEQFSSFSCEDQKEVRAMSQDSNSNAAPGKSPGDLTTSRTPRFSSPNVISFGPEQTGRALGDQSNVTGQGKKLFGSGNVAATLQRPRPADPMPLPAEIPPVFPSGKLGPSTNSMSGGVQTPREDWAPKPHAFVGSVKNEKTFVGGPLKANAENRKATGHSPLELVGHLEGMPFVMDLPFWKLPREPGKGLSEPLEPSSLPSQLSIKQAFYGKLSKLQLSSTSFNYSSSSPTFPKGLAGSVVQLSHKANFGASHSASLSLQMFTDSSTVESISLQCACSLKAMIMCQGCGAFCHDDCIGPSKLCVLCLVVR
UniProt Q16665: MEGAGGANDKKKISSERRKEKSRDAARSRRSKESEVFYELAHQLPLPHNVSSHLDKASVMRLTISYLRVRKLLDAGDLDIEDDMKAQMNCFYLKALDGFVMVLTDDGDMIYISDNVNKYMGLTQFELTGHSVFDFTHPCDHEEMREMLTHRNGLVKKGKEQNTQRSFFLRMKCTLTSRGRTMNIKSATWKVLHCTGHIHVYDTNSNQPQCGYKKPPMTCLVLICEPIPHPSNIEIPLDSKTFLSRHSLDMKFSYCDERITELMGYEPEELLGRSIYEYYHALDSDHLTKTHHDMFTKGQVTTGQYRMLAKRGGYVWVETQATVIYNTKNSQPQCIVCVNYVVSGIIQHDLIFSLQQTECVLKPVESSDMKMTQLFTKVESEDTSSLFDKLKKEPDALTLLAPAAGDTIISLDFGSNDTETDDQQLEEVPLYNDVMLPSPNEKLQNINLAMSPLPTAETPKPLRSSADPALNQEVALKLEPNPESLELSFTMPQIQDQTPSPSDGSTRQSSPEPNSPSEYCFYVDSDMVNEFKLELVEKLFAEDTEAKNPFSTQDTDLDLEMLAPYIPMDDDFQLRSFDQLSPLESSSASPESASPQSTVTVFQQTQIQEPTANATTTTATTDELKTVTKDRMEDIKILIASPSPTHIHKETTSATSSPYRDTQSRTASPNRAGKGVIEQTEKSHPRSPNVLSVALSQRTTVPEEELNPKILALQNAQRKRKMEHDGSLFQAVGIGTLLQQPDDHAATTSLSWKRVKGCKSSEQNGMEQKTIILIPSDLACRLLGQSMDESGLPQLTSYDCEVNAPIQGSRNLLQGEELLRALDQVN

What was measured:
[1] = molecular target: endogenous EZH2 (K562) (human (endogenous in K562)) (UniProt Q15910); assay: co-IP; endogenous proteins, K562 whole-cell extract; non-immune IgG as negative control
[2] = molecular target: FLAG-RUNX1-WT (human) (UniProt Q01196); assay: co-IP; FLAG-tagged RUNX1-WT or RUNX1-R135T transiently expressed in HEK293T or stably expressed in K562 cells, treated with 100 μM CoCl2 for 24 h; immunoprecipitation with anti-FLAG M2 affinity gel, immunoblot with HIF-1α, RUNX1 and FLAG antibodies; EV control
[3] = molecular target: FLAG-RUNX1-R135T (human) (UniProt Q01196); assay: as above

binding [1]	binding [2]	binding [3]	Substance
binds			endogenous ASXL1 protein (K562) (from UniProt Q8IXJ9 1-1541)
	binds	binds	Hypoxia-inducible factor-1α (from UniProt Q16665 1-826)
